Two molecules from article PMC8632963 can be followed below.

Chains of the proteins cited; added tags and fusions are not shown.
UniProt Q9H813: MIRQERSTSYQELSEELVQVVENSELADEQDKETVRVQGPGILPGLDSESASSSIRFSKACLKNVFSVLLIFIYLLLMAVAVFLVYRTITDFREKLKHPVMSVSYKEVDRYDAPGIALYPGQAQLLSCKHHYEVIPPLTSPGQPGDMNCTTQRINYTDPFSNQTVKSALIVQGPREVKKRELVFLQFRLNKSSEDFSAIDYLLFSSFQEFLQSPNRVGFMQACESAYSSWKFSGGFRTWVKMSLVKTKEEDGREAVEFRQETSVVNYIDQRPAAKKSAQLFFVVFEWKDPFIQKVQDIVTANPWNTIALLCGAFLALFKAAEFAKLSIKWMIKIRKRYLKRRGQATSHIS

The assay concerns the target T1, GST-RDH14 (retinol dehydrogenase 14, wild type) (human) (UniProt Q9HBH5).
T1 sequence: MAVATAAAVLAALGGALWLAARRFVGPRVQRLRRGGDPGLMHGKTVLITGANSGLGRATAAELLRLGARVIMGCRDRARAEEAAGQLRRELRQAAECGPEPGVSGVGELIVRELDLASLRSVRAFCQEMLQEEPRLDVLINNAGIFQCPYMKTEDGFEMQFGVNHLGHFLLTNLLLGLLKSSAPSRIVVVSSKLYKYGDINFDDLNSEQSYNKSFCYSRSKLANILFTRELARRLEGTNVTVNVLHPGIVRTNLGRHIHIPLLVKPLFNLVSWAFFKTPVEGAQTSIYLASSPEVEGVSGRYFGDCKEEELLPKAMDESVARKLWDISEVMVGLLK
The experiment in a line: pull-down; GST fusion baits from E. coli immobilised on glutathione agarose resin (2 h, 4 °C), washed 5 times; 800 µL SK-N-SH cell lysate as prey, overnight at 4 °C; eluted with 10 mM glutathione; western blot with anti-TMEM206 or anti-FAM5B antibody; only the target purified. Background: In western blotting, separated proteins are transferred to a membrane and probed.

These are yes or no findings as the source states them, for the method shown. Binding seen in cells or lysates may run through a third protein. Some results given as binding are weak or reduced against the parent protein; the word gives no strength. Tags and fused reporters may be left off the sequences shown.

Consider “proton-activated chloride channel 1 (PACC1/TMEM206) (from UniProt Q9H813 1-350)”, for which the binding result is “binds”.

B1: bone morphogenic protein/retinoic acid inducible neural-specific protein 2 (BRINP2) (protein, UniProt Q9C0B6 34-783)
chain: VSATAAAVVPEQHASVAGQHPLDWLLTDRGPFHRAQEYADFMERYRQGFTTRYRIYREFARWKVNNLALERKDFFSLPLPLAPEFIRNIRLLGRRPNLQQVTENLIKKYGTHFLLSATLGGEESLTIFVDKQKLGRKTETTGGASIIGGSGNSTAVSLETLHQLAASYFIDRESTLRRLHHIQIATGAIKVTETRTGPLGCSNYDNLDSVSSVLVQSPENKVQLLGLQVLLPEYLRERFVAAALSYITCSSEGELVCKENDCWCKCSPTFPECNCPDADIQAMEDSLLQIQDSWATHNRQFEESEEFQALLKRLPDDRFLNSTAISQFWAMDTSLQHRYQQLGAGLKVLFKKTHRILRRLFNLCKRCHRQPRFRLPKERSLSYWWNRIQSLLYCGESTFPGTFLEQSHSCTCPYDQSSCQGPIPCALGEGPACAHCAPDNSTRCGSCNPGYVLAQGLCRPEVAESLENFLGLETDLQDLELKYLLQKQDSRIEVHSIFISNDMRLGSWFDPSWRKRMLLTLKSNKYKPGLVHVMLALSLQICLTKNSTLEPVMAIYVNPFGGSHSESWFMPVNEGSFPDWERTNVDAAAQCQNWTITLGNRWKTFFETVHVYLRSRIKSLDDSSNETIYYEPLEMTDPSKNLGYMKINTLQVFGYSLPFDPDAIRDLILQLDYPYTQGSQDSALLQLIELRDRVNQLSPPGKVRLDLFSCLLRHRLKLANNEVGRIQSSLRAFNSKLPNPVEYETGKLCS
In the case of B1, the binding entry was “no binding”.
